Paper PMC6071836
No constants are given. Whether binding was seen depends on the method and setting. For part of these data: Binding seen in cells or lysates may run through a third protein. For part of these data: Where a sequence is shown, tags or fusion partners need not be part of it.

Experiments:
Settings in all cases: remark: other sources report otherwise
[1] = biological target: GFP-DHX15 (human), O43143; test: co-IP; tagged proteins expressed in HeLa cells, IP from cell extracts by the tag (anti-GFP, anti-HA or anti-FLAG), washes with lysis buffer containing 0.1 M NaCl, Western blot; RNase A treatment of the IP in Fig S6B
[2] = biological target: T1, recombinant human CMTR1 (human), Q8N1G2; test: SEC; recombinant protein alone on Superdex 200 10/300; fractions by Western blot; elution at 14.5 ml; both purified
T1 chain: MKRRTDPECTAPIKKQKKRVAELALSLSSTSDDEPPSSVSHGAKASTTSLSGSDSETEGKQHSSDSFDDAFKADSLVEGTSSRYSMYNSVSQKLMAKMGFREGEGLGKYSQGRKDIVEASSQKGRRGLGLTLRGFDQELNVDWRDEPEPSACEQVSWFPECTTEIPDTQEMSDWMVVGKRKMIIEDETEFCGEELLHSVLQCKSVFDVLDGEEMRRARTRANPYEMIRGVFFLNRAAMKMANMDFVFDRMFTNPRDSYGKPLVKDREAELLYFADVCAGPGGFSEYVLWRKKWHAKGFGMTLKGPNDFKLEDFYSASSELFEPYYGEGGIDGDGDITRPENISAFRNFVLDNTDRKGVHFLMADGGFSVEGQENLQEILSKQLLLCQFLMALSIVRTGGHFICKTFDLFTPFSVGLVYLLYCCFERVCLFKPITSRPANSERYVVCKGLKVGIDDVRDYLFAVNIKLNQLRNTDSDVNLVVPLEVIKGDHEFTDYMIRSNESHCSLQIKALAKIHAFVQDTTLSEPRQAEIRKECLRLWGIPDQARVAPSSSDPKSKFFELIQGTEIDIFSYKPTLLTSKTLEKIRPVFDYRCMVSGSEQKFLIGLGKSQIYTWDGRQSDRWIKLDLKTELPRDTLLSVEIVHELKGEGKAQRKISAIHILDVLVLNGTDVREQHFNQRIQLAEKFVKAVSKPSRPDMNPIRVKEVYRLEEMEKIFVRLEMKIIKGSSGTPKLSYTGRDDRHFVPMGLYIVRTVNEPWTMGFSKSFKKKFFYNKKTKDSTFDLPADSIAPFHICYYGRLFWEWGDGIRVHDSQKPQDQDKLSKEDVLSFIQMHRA

[3] = biological target: recombinant His6-DHX15 (human), O43143; test: as above

B1: HA-DHX15 WT, O43143 1-795 (enzyme)
chain: MSKRHRLDLGEDYPSGKKRAGTDGKDRDRDRDREDRSKDRDRERDRGDREREREKEKEKELRASTNAMLISAGLPPLKASHSAHSTHSAHSTHSTHSAHSTHAGHAGHTSLPQCINPFTNLPHTPRYYDILKKRLQLPVWEYKDRFTDILVRHQSFVLVGETGSGKTTQIPQWCVEYMRSLPGPKRGVACTQPRRVAAMSVAQRVADEMDVMLGQEVGYSIRFEDCSSAKTILKYMTDGMLLREAMNDPLLERYGVIILDEAHERTLATDILMGVLKEVVRQRSDLKVIVMSATLDAGKFQIYFDNCPLLTIPGRTHPVEIFYTPEPERDYLEAAIRTVIQIHMCEEEEGDLLLFLTGQEEIDEACKRIKREVDDLGPEVGDIKIIPLYSTLPPQQQQRIFEPPPPKKQNGAIGRKVVVSTNIAETSLTIDGVVFVIDPGFAKQKVYNPRIRVESLLVTAISKASAQQRAGRAGRTRPGKCFRLYTEKAYKTEMQDNTYPEILRSNLGSVVLQLKKLGIDDLVHFDFMDPPAPETLMRALELLNYLAALNDDGDLTELGSMMAEFPLDPQLAKMVIASCDYNCSNEVLSITAMLSVPQCFVRPTEAKKAADEAKMRFAHIDGDHLTLLNVYHAFKQNHESVQWCYDNFINYRSLMSADNVRQQLSRIMDRFNLPRRSTDFTSRDYYINIRKALVTGYFMQVAHLERTGHYLTVKDNQVVQLHPSTVLDHKPEWVLYNEFVLTTKNYIRTCTDIKPEWLVKIAPQYYDMSNFPQCEAKRQLDRIIAKLQSKEYSQY
With B1 as the binder, how does the binding [1] read?
The binding was “no binding”.

B2: recombinant human CMTR1, Q8N1G2 1-835 (enzyme)
chain: MKRRTDPECTAPIKKQKKRVAELALSLSSTSDDEPPSSVSHGAKASTTSLSGSDSETEGKQHSSDSFDDAFKADSLVEGTSSRYSMYNSVSQKLMAKMGFREGEGLGKYSQGRKDIVEASSQKGRRGLGLTLRGFDQELNVDWRDEPEPSACEQVSWFPECTTEIPDTQEMSDWMVVGKRKMIIEDETEFCGEELLHSVLQCKSVFDVLDGEEMRRARTRANPYEMIRGVFFLNRAAMKMANMDFVFDRMFTNPRDSYGKPLVKDREAELLYFADVCAGPGGFSEYVLWRKKWHAKGFGMTLKGPNDFKLEDFYSASSELFEPYYGEGGIDGDGDITRPENISAFRNFVLDNTDRKGVHFLMADGGFSVEGQENLQEILSKQLLLCQFLMALSIVRTGGHFICKTFDLFTPFSVGLVYLLYCCFERVCLFKPITSRPANSERYVVCKGLKVGIDDVRDYLFAVNIKLNQLRNTDSDVNLVVPLEVIKGDHEFTDYMIRSNESHCSLQIKALAKIHAFVQDTTLSEPRQAEIRKECLRLWGIPDQARVAPSSSDPKSKFFELIQGTEIDIFSYKPTLLTSKTLEKIRPVFDYRCMVSGSEQKFLIGLGKSQIYTWDGRQSDRWIKLDLKTELPRDTLLSVEIVHELKGEGKAQRKISAIHILDVLVLNGTDVREQHFNQRIQLAEKFVKAVSKPSRPDMNPIRVKEVYRLEEMEKIFVRLEMKIIKGSSGTPKLSYTGRDDRHFVPMGLYIVRTVNEPWTMGFSKSFKKKFFYNKKTKDSTFDLPADSIAPFHICYYGRLFWEWGDGIRVHDSQKPQDQDKLSKEDVLSFIQMHRA
B2 was tested. Which binding [2] did it give?
The binding was “no binding”.

B3: recombinant His6-DHX15, O43143 1-795 (enzyme)
chain: MSKRHRLDLGEDYPSGKKRAGTDGKDRDRDRDREDRSKDRDRERDRGDREREREKEKEKELRASTNAMLISAGLPPLKASHSAHSTHSAHSTHSTHSAHSTHAGHAGHTSLPQCINPFTNLPHTPRYYDILKKRLQLPVWEYKDRFTDILVRHQSFVLVGETGSGKTTQIPQWCVEYMRSLPGPKRGVACTQPRRVAAMSVAQRVADEMDVMLGQEVGYSIRFEDCSSAKTILKYMTDGMLLREAMNDPLLERYGVIILDEAHERTLATDILMGVLKEVVRQRSDLKVIVMSATLDAGKFQIYFDNCPLLTIPGRTHPVEIFYTPEPERDYLEAAIRTVIQIHMCEEEEGDLLLFLTGQEEIDEACKRIKREVDDLGPEVGDIKIIPLYSTLPPQQQQRIFEPPPPKKQNGAIGRKVVVSTNIAETSLTIDGVVFVIDPGFAKQKVYNPRIRVESLLVTAISKASAQQRAGRAGRTRPGKCFRLYTEKAYKTEMQDNTYPEILRSNLGSVVLQLKKLGIDDLVHFDFMDPPAPETLMRALELLNYLAALNDDGDLTELGSMMAEFPLDPQLAKMVIASCDYNCSNEVLSITAMLSVPQCFVRPTEAKKAADEAKMRFAHIDGDHLTLLNVYHAFKQNHESVQWCYDNFINYRSLMSADNVRQQLSRIMDRFNLPRRSTDFTSRDYYINIRKALVTGYFMQVAHLERTGHYLTVKDNQVVQLHPSTVLDHKPEWVLYNEFVLTTKNYIRTCTDIKPEWLVKIAPQYYDMSNFPQCEAKRQLDRIIAKLQSKEYSQY
B3 was tested. Which binding [3] did it give?
The binding was “no binding”.
